Data: publication PMC9584954

By UniProt entry, the sequences of proteins in these tests, tags left out. Where a name states a change or a piece, a line headed by the entry shows the natural chain unless it says otherwise.
UniProt Q6M050: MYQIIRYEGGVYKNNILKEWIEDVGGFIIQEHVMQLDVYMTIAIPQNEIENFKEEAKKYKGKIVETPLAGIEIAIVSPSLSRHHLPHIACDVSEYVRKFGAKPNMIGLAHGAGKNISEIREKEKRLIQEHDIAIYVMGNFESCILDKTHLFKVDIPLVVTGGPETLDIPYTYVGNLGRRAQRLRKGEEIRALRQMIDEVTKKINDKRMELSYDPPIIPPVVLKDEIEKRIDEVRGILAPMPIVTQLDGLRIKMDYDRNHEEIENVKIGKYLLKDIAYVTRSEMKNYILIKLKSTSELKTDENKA
UniProt Q6LZH2: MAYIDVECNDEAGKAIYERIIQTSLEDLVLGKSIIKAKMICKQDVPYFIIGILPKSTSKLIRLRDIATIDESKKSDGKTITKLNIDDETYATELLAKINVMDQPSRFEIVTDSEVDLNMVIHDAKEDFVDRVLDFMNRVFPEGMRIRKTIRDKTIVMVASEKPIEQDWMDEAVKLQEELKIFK
UniProt Q6LZK7: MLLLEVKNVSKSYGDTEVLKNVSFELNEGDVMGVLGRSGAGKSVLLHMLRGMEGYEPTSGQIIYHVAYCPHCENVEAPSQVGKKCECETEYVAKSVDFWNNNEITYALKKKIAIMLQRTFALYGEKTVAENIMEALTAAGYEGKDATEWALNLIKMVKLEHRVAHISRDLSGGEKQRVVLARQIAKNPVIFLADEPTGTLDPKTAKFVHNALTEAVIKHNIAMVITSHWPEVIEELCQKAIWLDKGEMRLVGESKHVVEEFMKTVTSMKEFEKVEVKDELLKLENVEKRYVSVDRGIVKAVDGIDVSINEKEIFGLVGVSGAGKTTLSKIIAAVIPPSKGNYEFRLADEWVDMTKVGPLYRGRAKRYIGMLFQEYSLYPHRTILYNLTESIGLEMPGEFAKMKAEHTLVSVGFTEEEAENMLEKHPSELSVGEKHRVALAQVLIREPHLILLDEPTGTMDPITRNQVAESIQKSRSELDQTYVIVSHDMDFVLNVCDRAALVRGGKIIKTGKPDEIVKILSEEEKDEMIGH
UniProt Q6M0W4: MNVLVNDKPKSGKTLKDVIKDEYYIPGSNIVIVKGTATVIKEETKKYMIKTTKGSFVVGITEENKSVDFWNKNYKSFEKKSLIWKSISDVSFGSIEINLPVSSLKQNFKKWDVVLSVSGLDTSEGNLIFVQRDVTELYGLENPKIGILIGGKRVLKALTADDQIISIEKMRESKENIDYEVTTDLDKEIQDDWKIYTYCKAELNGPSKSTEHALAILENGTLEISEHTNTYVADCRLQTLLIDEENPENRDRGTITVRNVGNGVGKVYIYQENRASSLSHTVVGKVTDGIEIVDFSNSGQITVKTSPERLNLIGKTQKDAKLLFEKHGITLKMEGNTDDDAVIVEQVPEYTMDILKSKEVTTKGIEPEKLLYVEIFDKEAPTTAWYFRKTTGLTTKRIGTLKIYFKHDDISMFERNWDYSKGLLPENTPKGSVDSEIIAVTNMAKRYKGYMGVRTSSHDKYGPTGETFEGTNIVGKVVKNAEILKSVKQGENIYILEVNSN

T1: Flag-Strep2-tagged Methanococcus maripaludis McrC (N-terminal tag) (Methanococcus maripaludis) (UniProt Q6LWZ7)
T1 sequence: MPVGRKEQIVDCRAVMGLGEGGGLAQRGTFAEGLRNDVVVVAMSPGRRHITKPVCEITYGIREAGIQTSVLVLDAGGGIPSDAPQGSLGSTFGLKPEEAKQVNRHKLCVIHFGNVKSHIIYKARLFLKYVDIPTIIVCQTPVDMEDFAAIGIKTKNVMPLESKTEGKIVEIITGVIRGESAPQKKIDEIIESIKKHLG

B1: Methanococcus maripaludis McrB (untagged) (protein, UniProt Q6LWZ9 1-443)
chain: MVKYEDKISLYDAKGNLVAENVPLEAISPLYNPTIKSMVKNIKRTVAVNLAGIEGTLAAGKIGGKGCQVPGRTLDISAVSNAQAIADEVEKILKVSEDDDTAVKIINGGKQLAVQVPTARLDVAAEYSVSMLSTAMALKEALIKTFNIDMFDGSTVHAAIVGNYPQVMDYAGGNIASLLGAPSMMEGLGYALRNIPVNHAVATTKKNMMNAIAFSSVMEQTATFEMGDAVGSFERQHLLGLAYQGLNADNLVIDFIKANAKGTVGSVVETVIDRAIADGVIVVDKTMSSGFNMYKPADVNKWNAYAAAGLVAAVAVSCGAARAAQNVASVILYFNDILEYETGLPGVDYGRSMGTAVGFSFFSHSIYGGGGPGIFNGNHVVTRHSKGFAIPPVCAAMCADAGTQMFSPEHTSGLVGSVYSAFDEFREPMKYVIEGALSIKDQF
B2: host Methanococcus maripaludis McrD (protein, UniProt Q6LWZ8 1-159)
chain: MIELEVFPHRYLKAETTEKFLNRAYSLSKVQRVVIHGESLPNKVGYGPAKGTPVNHSEKKEITVKGVPVELMLQVGRLWVLLDDESEIEKIEEICKDLFPFGYRLTKGKFLRNDPTVSDFIKYGESAVDDIDKRLLGATDPRSKFDSSVTIIPKSEKNE

Key:
[1] = biological target: T1, Flag-Strep2-tagged Methanococcus maripaludis McrC (N-terminal tag) (Methanococcus maripaludis); experiment: affinity purification with mass spectrometry; pull-down of Flag-Strep2-tagged McrC or McrD expressed from a plasmid in M. maripaludis; co-purified proteins separated by SDS-PAGE and identified by MALDI-TOF MS, relative abundance by LC-MS/MS
[2] = biological target: Flag-Strep2-tagged Methanococcus aeolicus McrD (tag at the N-terminal of McrD) (Methanococcus aeolicus); experiment: as above
[3] = biological target: Flag-Strep2-tagged Methanococcus aeolicus McrG (tag at the N-terminus of McrG, NG) (Methanococcus aeolicus); experiment: affinity purification with mass spectrometry; Flag-Strep2-tagged subunit expressed with its mcr operon (full or truncated) in M. maripaludis at 37 °C; lysate on Strep-Tactin Superflow Plus in 100 mM Tris-HCl pH 7.6, 150 mM NaCl, eluted with 2.5 mM desthiobiotin, then Q-Sepharose anion exchange; SDS-PAGE, bands identified by MALDI-TOF MS, relative abundance by LC-MS/MS
[4] = biological target: Flag-Strep2-tagged McrG of the ANME-1_BS MCR (uncultured archaeon ANME-1_BS); experiment: affinity purification with mass spectrometry; N-terminally Flag-Strep2-tagged McrG with its operon expressed in M. maripaludis grown at 25 °C; Strep-Tactin affinity chromatography, then Strep-Tactin XT magnetic beads; SDS-PAGE, MALDI-TOF MS
[5] = biological target: Flag-Strep2-tagged McrG of the ANME-2b_HR1 MCR (uncultured archaeon ANME-2b_HR1); experiment: as above

| Molecule | binding [1] | further results |
| --- | --- | --- |
| untagged host Methanococcus maripaludis McrG | binds |  |
| methanogenesis marker protein 7 of M. maripaludis (from UniProt Q6M050) | binds |  |
| Methanococcus maripaludis McrA (untagged) | binds |  |
| methanogenesis marker protein 17 of M. maripaludis (from UniProt Q6LZH2) | binds |  |
| M. maripaludis A2 protein (MCR activation complex component A2) (from UniProt Q6LZK7) | binds |  |
| methanogenesis marker protein 3 of M. maripaludis (from UniProt Q6M0W4) | binds |  |
| B1 |  | binding [2]: binds; binding [3]: binds weakly; binding [4]: no binding; binding [5]: binds |
| B2 |  | binding [3]: binds |

These are yes or no findings as the source states them, for the method shown. Binding seen in cells or lysates may run through a third protein. These calls come from enrichment with a bait or labelling near it, and not all partners need be listed. For some assays here: A no says only that the protein was not detected with the bait. Tags and fused reporters may be left off the sequences shown.
